Assay results reported in publication PMC7414866, “The Rnf complex is a Na^+ coupled respiratory enzyme in a fermenting bacterium, Thermotoga maritima” (Communications Biology, 2020).
These are yes or no findings as the source states them, for the method shown. Some entries that bind do so weakly or less than the wild type.

Legend:
[1] = molecular target: T1, F1FO-ATP synthase subunit alpha of Thermotoga maritima (Thermotoga maritima (endogenous in T. maritima DSM3109)) (UniProt Q9X1U7); assay: native gel or EMSA; 20 ug of the preparation with Rnf and ATP synthase on native PAGE; bands found by in-gel NADH:MTT-oxidoreductase or ATPase activity, excised, separated by SDS-PAGE (silver stain); subunits identified by western blot or LC/MS/MS and MALDI-TOF
T1 sequence: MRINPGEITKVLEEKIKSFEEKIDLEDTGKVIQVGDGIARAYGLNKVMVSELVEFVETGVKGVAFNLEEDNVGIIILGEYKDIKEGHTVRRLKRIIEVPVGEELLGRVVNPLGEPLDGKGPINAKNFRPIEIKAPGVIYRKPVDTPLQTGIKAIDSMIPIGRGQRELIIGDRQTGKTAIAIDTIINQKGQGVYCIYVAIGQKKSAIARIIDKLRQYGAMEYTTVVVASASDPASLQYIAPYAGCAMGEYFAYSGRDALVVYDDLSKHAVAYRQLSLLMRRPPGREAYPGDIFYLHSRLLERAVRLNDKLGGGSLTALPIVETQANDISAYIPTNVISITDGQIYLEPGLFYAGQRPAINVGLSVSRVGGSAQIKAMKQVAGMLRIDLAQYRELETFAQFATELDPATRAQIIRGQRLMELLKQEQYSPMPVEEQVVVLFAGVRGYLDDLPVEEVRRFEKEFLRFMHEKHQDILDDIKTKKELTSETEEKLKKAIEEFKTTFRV

[2] = molecular target: T2, RnfC of Thermotoga maritima (Thermotoga maritima (endogenous in T. maritima DSM3109)) (UniProt Q9WY86); assay: as above
T2 sequence: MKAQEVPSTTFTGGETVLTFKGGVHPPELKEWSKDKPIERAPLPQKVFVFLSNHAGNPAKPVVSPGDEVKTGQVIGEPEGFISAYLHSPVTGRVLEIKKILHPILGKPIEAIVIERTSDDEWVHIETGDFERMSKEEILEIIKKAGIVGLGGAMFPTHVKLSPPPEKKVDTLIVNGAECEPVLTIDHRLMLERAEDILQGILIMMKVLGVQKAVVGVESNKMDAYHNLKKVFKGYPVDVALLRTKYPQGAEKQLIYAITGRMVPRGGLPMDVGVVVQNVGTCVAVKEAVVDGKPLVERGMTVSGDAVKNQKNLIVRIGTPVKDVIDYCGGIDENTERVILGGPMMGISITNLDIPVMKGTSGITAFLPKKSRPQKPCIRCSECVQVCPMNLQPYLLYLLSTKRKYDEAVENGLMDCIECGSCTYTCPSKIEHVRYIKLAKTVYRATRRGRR

[3] = molecular target: T2, RnfC of Thermotoga maritima (Thermotoga maritima (endogenous in T. maritima DSM3109)); assay: co-purification (PEG precipitation, sucrose gradient, anion exchange, hydroxyapatite, gel filtration); DDM solubilisate, PEG6000 7% then 12%, sucrose gradient 20-50%, Q-sepharose, hydroxyapatite, Sephacryl S300; subunits confirmed by MALDI-TOF and SDS-PAGE; no ATPase activity in the preparation

B1: F1FO-ATP synthase subunit gamma of Thermotoga maritima (protein, UniProt Q9X1U6 1-273)
chain: MLQIKRKINATQSLMKITRAMEMVARAKVRKIESEYQKFKPFYDEVKRLWALVPAESLDPIFFEEGNRDLIVVITSDMGLCGSFNSEILREAERVISESRDPHLILVGLKAINHFKDGKVLKMYDRFYEIPDFRNGSTIVEDILNFLDGKPARVRVIFSRFKNVLIQRPEVHELLPIKKEEKKREDFEYEPRLEQIAPLIFHYYLSATLMELMFQTKIGEYYARQNAMKNATDNAQEVIRELTLAYNKARQASITQELIEIVTGAEALKEIEK
With B1 as the binder, how does the binding [1] read?
The binding was “binds”.

B2: F1FO-ATP synthase subunit delta of Thermotoga maritima (protein, UniProt Q9X1U8 1-183)
chain: MRFSAVAGRYARALLNVAIEKEKEEEYLRFLDLVCQIYESSRELFDNPILKPEKKISLIKEIMKSFGQEMDEFQERFLTLVFERKRQKLLRNIRDLFEYEKILSEQKVPANLSIAHSPEDEELSLLRKFVRKYALKDPVFDISIDESLIAGALVEFEGFRLDTTVQGRLKRIAREALKRGEMS
Which binding [1] does the source give for B2 here?
The binding was “binds”.

B3: F1FO-ATP synthase subunit epsilon of Thermotoga maritima (protein, UniProt Q9X1U5 1-108)
chain: MKVKIVTPYGIVYDRESDFISFRTVEGSMGILPRRAPIVTQLSVCDVKIKSGDDEYHLKVAGGFLLCDGKDVIIITEEAGREEDISPDRFMEARERVERVRRFFQSSL
Which binding [1] does the source give for B3 here?
The binding was “binds”.

B4: F1FO-ATP synthase subunit c of Thermotoga maritima (protein, UniProt Q9X1V0 1-85)
chain: MENLGDLAQGLALLGKYLGAGLCMGIGAIGPGIGEGNIGAHAMDAMARQPEMVGTITTRMLLADAVAETTGIYSLLIAFMILLVV
B4 was tested. Which binding [1] did it give?
The binding was “binds”.

B5: F1FO-ATP synthase subunit b of Thermotoga maritima (protein, UniProt Q9X1U9 1-164)
chain: MGFLEINWTSAAMLMLFVLMVYFLNKFLYTPFIEMAEKRRKKVEEDLKSAEQLKEEAEKMRSEAERFLSEARQRADEIVESARKEAEAIVEEAREKAKKEAQNIVESAKTQIEVEYKKALEQVQERAAELSVILATKLLQKVFQDERARREYLVKILKEEIEKS
Which binding [1] does the source give for B5 here?
Its binding is “binds”.

B6: RnfD of Thermotoga maritima (protein, UniProt Q9WY87 1-318)
chain: MKLISAYAPHLREEDDVRKIMLDVLIALSPAVIGAAYFFGWYALFLCIAGAVIGELFDIFVMRYLRGVKDFVPDGSGAVTGLLLAMNVSTRLPFWAFLLGLVFALGIGKHVFGGLGQNIFNPALVGRAFLLISFPTYMTTWVVPGAGFWKSPADVVTAATPLALFKEHGVFTPYWDLFIGKVGGSLGETSALLLIIGFIYLLLRKRVKIFIPVSYIGTVLVFSSIAYLMNPRYGDPLFHLLSGGLMLGALFMATDMVTSPITAKGQVIFGIGCGVLTMAIRLFGAYPEGVSFSILFMNALVPLIDRYTRPRIFGEVKK
modifications: covalently bound flavin
Which results are given for B6?
binding [2]: binds; binding [3]: binds
